Construct, isoform or probe ends are uncertain for at least one entry. For part of these data: No signal at the amounts used counts as a negative.
Experiments:
[1] = system: RpTOE1 (Robinia pseudoacacia); assay: EMSA; settings: Chemiluminescent EMSA kit (Beyotime), 6% polyacrylamide gel; pH and temperature not stated; recombinant protein; protein details: His (pET-28a); label: 3'-biotin
[2] = system: RpTOE1 (Robinia pseudoacacia); assay: competition with a labelled probe; settings: competes with labeled Probe, dose-dependent (EMSA); Chemiluminescent EMSA kit (Beyotime), 6% polyacrylamide gel; pH and temperature not stated; recombinant protein; protein details: His (pET-28a)

Row | Sequence | binding result [1] | binding result [2]
1 | TTGGAGATTCCTCCATTGCAACCTAAAATCCTTTGGTGGACCAAT (double strand) [Probe (RpFT promoter, TBS-like)] | binds | –
2 | TTGGAGATTCCTCCATTGCAACCTAAAATCCTTTGGTGGACCAAT (double strand) [unlabeled Probe (cold competitor)] | – | binds
3 | TTGGAGATTCCTCCATTGCGGGGGGGAATCCTTTGGTGGACCAAT (double strand) [mProbe (TBS-like to GGGGGGG)] | no binding | –

From paper PMC9104387
